# Test results reported in US20230174641A1.
# Amino acid sequences for entries named in this document (tags omitted).
# UniProt Q01718: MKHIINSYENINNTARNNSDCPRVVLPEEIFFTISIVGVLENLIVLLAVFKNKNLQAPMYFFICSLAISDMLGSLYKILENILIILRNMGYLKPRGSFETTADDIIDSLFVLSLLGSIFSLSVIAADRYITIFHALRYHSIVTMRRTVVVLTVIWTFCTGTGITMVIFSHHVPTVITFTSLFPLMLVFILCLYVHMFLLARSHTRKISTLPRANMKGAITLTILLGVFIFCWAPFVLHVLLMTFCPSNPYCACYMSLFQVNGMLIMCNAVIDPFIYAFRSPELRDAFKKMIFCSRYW
# These are yes or no findings as the source states them, for the method shown. Some entries that bind do so weakly or less than the wild type.
# T1: 9A
# T1 sequence (peptide): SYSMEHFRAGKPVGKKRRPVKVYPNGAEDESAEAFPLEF
# Tests used:
# 9A = biological target: T1, 9A; assay: condition: 100 nM (0.45 µg/mL, from [p-2087]; not printed on the sheet); SPR (ProteOn XPR36), Ab9 amine-coupled on GLC chip, mutant peptide injected for 2 min
# [1] = biological target: melanocortin-2 receptor (MC2R) (UniProt Q01718); assay: 125I-ACTH (1-39) tracer on MC2R-transfected cells, Cytostar-T scintillating microplates, counts as % of binding without antibody
binding (9A),binding [1],Binder
no binding,,"Ab9 (antibody, human IgG1, kappa, N297A, V domains shown) VH: QSVEESGGRLVTPGTPLTLTCTVSGFSLNSYAMSWVRQAPGEGLEWIGIISDSGRTYYASWAKGRFTISKTSTTVDLKITSPTTEDTATYFCAREPEYGYDDYGDWVSDLWGPGTLVTVSS VL: DVVMTQTPASVEAAVGGTVTIKCQASQSISSYLSWYQQKPGQPPKLLIYRASTLASGVPSRFKGSGSGTQFTLTISDLECADAATYYCQSYYYSSSITYRNAFGGGTEVVVKR"
,binds,"SYSMEHFRWGKPVGKKRRPVKVYPNGAEDESAEAFPLEF (125I on Tyr 23) [ACTH (1-39) 23 TYR, [125I]]"
